Source: US20050277588A1 (AFFYMAX, published 2005)
These are yes or no findings as the source states them, for the method shown. Some entries that bind do so weakly or less than the wild type.

T1: granulocyte-colony stimulating factor receptor (G-CSFR), purified / soluble receptor used in the binding assays (UniProt Q99062)
T1 sequence (looked up): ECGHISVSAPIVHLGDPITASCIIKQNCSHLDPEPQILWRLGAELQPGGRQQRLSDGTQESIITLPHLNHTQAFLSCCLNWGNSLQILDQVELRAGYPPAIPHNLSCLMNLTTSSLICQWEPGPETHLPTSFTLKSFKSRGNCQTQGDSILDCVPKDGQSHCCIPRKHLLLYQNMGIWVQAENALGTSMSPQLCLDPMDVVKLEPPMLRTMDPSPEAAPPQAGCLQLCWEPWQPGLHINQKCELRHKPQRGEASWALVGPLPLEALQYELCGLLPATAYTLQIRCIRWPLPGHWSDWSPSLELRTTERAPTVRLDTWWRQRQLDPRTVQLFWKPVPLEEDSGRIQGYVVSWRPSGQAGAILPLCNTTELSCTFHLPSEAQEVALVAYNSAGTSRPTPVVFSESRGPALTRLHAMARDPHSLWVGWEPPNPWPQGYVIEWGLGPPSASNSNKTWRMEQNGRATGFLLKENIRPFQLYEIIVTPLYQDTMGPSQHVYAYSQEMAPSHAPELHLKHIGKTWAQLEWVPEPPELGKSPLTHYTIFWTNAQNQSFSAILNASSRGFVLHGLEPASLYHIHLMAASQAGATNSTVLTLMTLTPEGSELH


How the values were obtained:
[1] = molecular target: T1, granulocyte-colony stimulating factor receptor (G-CSFR), purified / soluble receptor used in the binding assays; experiment: specific binding to G-CSFR (total minus non-specific binding with excess unlabeled ligand)
[2] = molecular target: T1, granulocyte-colony stimulating factor receptor (G-CSFR), purified / soluble receptor used in the binding assays; experiment: competitive binding: competition with 125I-G-CSF on plate-immobilised G-CSFR

Row | Binder | binding [1] | binding [2]
1 | QRANSGWVWV [Example 19 peptide …] | binds | –
2 | CPDWYQSYMC [Example 12 peptide …] | binds | binds
3 | SRTESGWVWT [Example 18 peptide …] | binds | –
4 | CSFVQLNSIC [Example 5 peptide …] | binds | binds
5 | CVPWMFYDLC [Example 6 peptide …] | binds | –
6 | CPHWTSYYMC [Example 13 peptide …] | binds | binds
7 | CADEVMHFCC [Example 3 peptide …] | binds | binds
8 | CNREIEAMCC [Example 2 peptide …] | binds | binds
9 | CAGEVMHMCC [Example 1 peptide …] | binds | binds
10 | CACMLRVVHC [Example 14 peptide …] | binds | binds
11 | SNESGWVWLP [Example 16 peptide …] | binds | –
12 | CDVWQLFDRC [Example 4 peptide …] | binds | binds
13 | CDPWMFYDLC [Example 7 peptide …] | binds | –
14 | EQSNSGWVWV [Example 17 peptide …] | binds | –

Continued, values first:

Row | binding [1] | binding [2] | Binder
15 | binds | binds | ETWGERDWFC [Example 21 peptide …]
16 | binds | binds | STSERAWFCG [Example 26 peptide …]
17 | binds | binds | ADNAERGWFC [Example 24 peptide …]
18 | binds | binds | DEMVYTVPYW [Example 31 peptide …]
19 | binds | – | DTWLELESRY [Example 33 peptide …]
20 | binds | binds | HTTNEQFFMC [Example 32 peptide …]
21 | binds | binds | ELSSEREWFC [Example 28 peptide …]
22 | binds | – | DMVYAYPPWS [Example 30 peptide …]
23 | binds | binds | DWQKTIPAYW [Example 34 peptide …]
24 | binds | – | DYDNSGWVWH [Example 20 peptide …]
25 | binds | binds | YETAERSYFC [Example 23 peptide …]
26 | binds | binds | ASWSERGWFC [Example 27 peptide …]
27 | binds | binds | DMQGERGWFC [Example 29 peptide …]
